The source of these data is patent US20210130401A1 (THE REGENTS OF THE UNIVERSITY OF MICHIGAN, priority 2017, published 2021).

A value given as a limit tells only on which side of the number the result lay.

A short description of the series: general procedure: hybrid (solid and solution phase) peptide synthesis; 2-chlorotrityl chloride resin (ChemPep, 1 mmol/g); EDCl, HOAt, DIPEA (solution couplings). The following applies: for cyclisation yield: cyclisation step; for final purity (method not given): Waters ACQUITY UPLC, reverse-phase SunFire C18 5 um 4.6x150 mm, 0.1% TFA water/CH3CN.
[1] abbreviates: late stage modification step, TFA salt.
[2] abbreviates: whole synthesis, scale of the general procedure 0.1 mmol, TFA salt.
Where [3] appears, read: whole synthesis, over 4 steps, scale of the general procedure 0.1 mmol, TFA salt.
[4] abbreviates: whole synthesis, over 3 steps, scale of the general procedure 0.1 mmol, TFA salt.

Regarding “N-((3R,6S,9S,12R)-6-ethyl-9-(3-guanidinopropyl)-12-methyl-2,5,8,11-tetraoxo-3-phenyl-1,4,7,10-tetraazacyclooctadecan-12-yl)isobutyramide”, the cyclisation yield (over 3 steps from 36c, TFA salt) was 46% yield over 3 steps.

For the substance “N-((3R,6S,9S,12R)-6-ethyl-9-(3-guanidinopropyl)-1,12-dimethyl-2,5,8,11-tetraoxo-3-phenyl-1,4,7,10-tetraazacyclohexadecan-12-yl)isobutyramide”, the cyclisation yield (over 3 steps from 36e, TFA salt) is given as 18% yield over 3 steps.

Turning to “N-((3R,6S,9S,12R)-9-(3-(3-acetylguanidino)propyl)-6-ethyl-12-methyl-2,5,8,11-tetraoxo-3-phenyl-1,4,7,10-tetraazacyclotetradecan-12-yl)isobutyramide”, under setting [1], the step yield was determined as 61% and the “final purity (method not given)” value is greater than 98%.

Take “N-((3R,6S,9S,12R)-9-(3-((amino(methylamino)methyl)amino)propyl)-3-(cyclohexylmethyl)-6-ethyl-12-methyl-2,5,8,11-tetraoxo-1,4,7,10-tetraazacyclotetradecan-12-yl)isobutyramide”: under setting [1], the step yield is reported as 62% and the “final purity (method not given)” value was greater than 98%.

In the case of “N-((3R,6S,9S,12R)-6-ethyl-12-methyl-9-(3-(3-methylguanidino)propyl)-2,5,8,11-tetraoxo-3-phenyl-1,4,7,10-tetraazacyclohexadecan-12-yl)isobutyramide”, where the note is “over 3 steps from 36h, TFA salt”, the cyclisation yield was 75% yield over 3 steps.

Take “N-((3R,6S,9S,12R)-3-(cyclohexylmethyl)-9-(3-((E)-2,3-dimethylguanidino)propyl)-6-ethyl-12-methyl-2,5,8,11-tetraoxo-1,4,7,10-tetraazacyclotetradecan-12-yl)isobutyramide”: under setting [1], the step yield turned out to be 30% and the “final purity (method not given)” value was greater than 98%.

“N-((3R,6S,9S,12R)-6-ethyl-3-(3-fluorophenyl)-9-(3-guanidinopropyl)-12-methyl-2,5,8,11-tetraoxo-1,4,7,10-tetraazacyclotetradecan-12-yl)isobutyramide”: under “whole synthesis, TFA salt”, the isolated mass was 8.0 mg. Under setting [2], the “final purity (method not given)” value is given as greater than 98%. Under setting [3], the isolated yield came to 14%.

As for “N-((3R,6S,9S,12R)-3-(cyclohexylmethyl)-6-ethyl-12-methyl-9-(3-(4-methylpiperazin-1-yl)propyl)-2,5,8,11-tetraoxo-1,4,7,10-tetraazacyclotetradecan-12-yl)isobutyramide”, under setting [1], the step yield was 73% and the “final purity (method not given)” value was greater than 98%.

Regarding “N-((3R,6S,12R)-6-ethyl-12-methyl-2,5,8,11-tetraoxo-3-phenyl-9-(3-phenylpropyl)-1,4,7,10-tetraazacyclotetradecan-12-yl)isobutyramide”, where the note is “whole synthesis, TFA salt”, the isolated mass was found to be 3.9 mg. For the same substance, under setting [2], the “final purity (method not given)” value was greater than 98% purity. For the same substance, the isolated yield under setting [4] is on record as 7% yield over 3 steps.

For “N-((3R,6S,9S,12R)-9-(3-guanidinopropyl)-12-methyl-2,5,8,11-tetraoxo-3-phenyl-6-propyl-1,4,7,10-tetraazacyclotetradecan-12-yl)isobutyramide”, the isolated mass (whole synthesis, TFA salt) is listed as 19.6 mg. Further, under setting [2], the “final purity (method not given)” value is on record as greater than 98%. The isolated yield under setting [3] worked out at 34%.

With “N-(3-((5S,8R,13R)-5-ethyl-13-isobutyramido-13-methyl-3,6,9,14-tetraoxo-8-phenyl-1,4,7,10-tetraazacyclotetradecan-2-yl)propyl)acrylamide”, under setting [1], the step yield turned out to be 66% and the “final purity (method not given)” value is given as greater than 98%.

For “N-((3R,6S,9S,12R)-9-(3-((E)-2,3-dimethylguanidino)propyl)-6-ethyl-12-methyl-2,5,8,11-tetraoxo-3-phenyl-1,4,7,10-tetraazacyclohexadecan-12-yl)isobutyramide”, the cyclisation yield (over 3 steps from 36i, TFA salt) stood at 27% yield over 3 steps.

For the substance “N-((3R,6S,9S,12R)-6-ethyl-12-methyl-2,5,8,11-tetraoxo-3-phenyl-9-(3-((E)-2-(2,2,2-trifluoroethyl)guanidino)propyl)-1,4,7,10-tetraazacyclotetradecan-12-yl)isobutyramide”, the isolated mass (whole synthesis, CF3COOH salt) was 1.1 mg. Also, under setting [2], the “final purity (method not given)” value is greater than 98%. Moreover, the isolated yield under setting [3] is recorded as 2%.

With “N-((3R,6S,9S,12R)-6-ethyl-12-methyl-2,5,8,11-tetraoxo-3-phenyl-9-(3-ureidopropyl)-1,4,7,10-tetraazacyclotetradecan-12-yl)isobutyramide”, the isolated mass (whole synthesis, TFA salt) amounted to 3.2 mg. In addition, under setting [2], the “final purity (method not given)” value is given as greater than 98% purity. The isolated yield under setting [4] was found to be 6% yield over 3 steps.
